The assay concerns the target T1, Fos-like antigen 1 (FOSL1) (human (endogenous in U251R and LN229R)) (UniProt P15407).
T1 sequence: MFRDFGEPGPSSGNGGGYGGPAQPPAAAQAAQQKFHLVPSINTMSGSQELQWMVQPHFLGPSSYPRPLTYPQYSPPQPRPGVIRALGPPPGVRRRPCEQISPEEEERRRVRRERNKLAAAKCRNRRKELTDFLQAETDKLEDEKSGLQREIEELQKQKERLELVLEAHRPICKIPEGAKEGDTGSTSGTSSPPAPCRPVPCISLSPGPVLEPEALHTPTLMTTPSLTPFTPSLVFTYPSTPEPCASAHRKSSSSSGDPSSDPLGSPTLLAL
As to the kind of experiment: affinity purification with mass spectrometry; anti-FOSL1 immunoprecipitation from U251R cells against input; SDS-PAGE, in-gel trypsin digestion, LC-MS/MS (timsTOF Pro).

Protein sequences, listed by entry. Tags and fused reporters are not part of them.
UniProt Q99873: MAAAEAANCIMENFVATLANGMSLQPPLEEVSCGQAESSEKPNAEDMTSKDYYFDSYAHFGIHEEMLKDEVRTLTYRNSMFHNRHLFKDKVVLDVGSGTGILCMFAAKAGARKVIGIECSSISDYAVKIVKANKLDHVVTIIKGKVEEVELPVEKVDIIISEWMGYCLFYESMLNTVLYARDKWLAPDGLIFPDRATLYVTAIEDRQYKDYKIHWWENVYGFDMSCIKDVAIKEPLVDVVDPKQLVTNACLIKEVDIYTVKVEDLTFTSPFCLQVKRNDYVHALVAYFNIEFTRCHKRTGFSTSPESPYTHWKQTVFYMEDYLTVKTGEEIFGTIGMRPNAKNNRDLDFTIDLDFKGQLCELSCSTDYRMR

The values below come from paper PMC12719381.

These are yes or no findings as the source states them, for the method shown. In cells and extracts the contact can be indirect. A yes stands for co-enrichment or nearness to the bait. Other partners may have been found.

In the case of “Protein Arginine Methyltransferase 1 (PRMT1) (from UniProt Q99873 1-371) (enzyme)”, the binding entry is “binds”.
